# Data source: PubChem BioAssay AID1224830 (NIAID, 2016)
# Purpose: 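Regulators of TLR4 signalling towards TNF-alpha in macrophage-like cells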 (primary screen)
# Cells: human THP-1 monocytic leukaemia cells, TNF dual-luciferase reporter clone, PMA-differentiated to macrophage-like cells
# Reagent: siRNA pool against human genes, 50 nM
# Duration: LPS for 4 h, given about 3 days after siRNA transfection
# Treatment: bacterial LPS (TLR4 ligand), 10 ng/ml
# Measurement: 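TNF firefly reporter luminescence divided by renilla, normalised to the plate median, then turned into a robust z-score for each replicate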
# Reading the numbers: TNF reporter robust z-score: higher = stronger TNF reporter response to LPS
# Active means: 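a well is active when its z-score exceeds 2.8 or falls below -1.5; control wells carry no call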
# Here is a random part of about 18,000 reagents tested. About 2,900 of all reagents (16%) count as active. 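Calls are made per well; low scores hint the gene aids the LPS response, high scores that it dampens it.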 Repeated entries: four replicate wells of each siRNA pool. No sequences are given here.
gene,TNF reporter robust z-score,activity call
HMX1,0.31,inactive
HMX1,0.59,inactive
HMX1,-0.47,inactive
HMX1,0.08,inactive
CT47A7,0.64,inactive
CT47A7,1.01,inactive
CT47A7,2.08,inactive
CT47A7,0.99,inactive
SFXN3,-0.63,inactive
SFXN3,0.11,inactive
SFXN3,-0.47,inactive
SFXN3,0.16,inactive
FSCN3,-1.81,active
FSCN3,-1.44,inactive
FSCN3,-1.53,active
FSCN3,-0.85,inactive
BMX,-1.38,inactive
BMX,0.23,inactive
BMX,-0.91,inactive
BMX,-0.87,inactive
RAB41,3.2,active
RAB41,5.21,active
RAB41,0.92,inactive
RAB41,0.33,inactive
COL28A1,-0.17,inactive
COL28A1,0.08,inactive
COL28A1,-0.14,inactive
COL28A1,0.01,inactive
ASAH1,-1.68,active
ASAH1,-1.08,inactive
ASAH1,-1.55,active
ASAH1,-0.96,inactive
ZNF419,0.07,inactive
ZNF419,-0.37,inactive
ZNF419,-0.09,inactive
ZNF419,-0.94,inactive
CDR1,1.34,inactive
CDR1,1.26,inactive
CDR1,0.46,inactive
CDR1,0.14,inactive
EPSTI1,0.09,inactive
EPSTI1,-0.04,inactive
EPSTI1,0.05,inactive
EPSTI1,0.27,inactive
SLC32A1,-0.7,inactive
SLC32A1,-0.3,inactive
SLC32A1,-0.06,inactive
SLC32A1,-1,inactive
DEFB125,-0.46,inactive
DEFB125,-0.27,inactive
DEFB125,-0.85,inactive
DEFB125,-0.03,inactive
MRPL49,2.22,inactive
MRPL49,1.43,inactive
MRPL49,1.44,inactive
MRPL49,1.77,inactive
KRT76,0.32,inactive
KRT76,-0.13,inactive
KRT76,0.49,inactive
KRT76,-0.44,inactive
ALLC,0.19,inactive
ALLC,0.54,inactive
ALLC,0.24,inactive
ALLC,0.6,inactive
DACT3,0.84,inactive
DACT3,1.93,inactive
DACT3,0.44,inactive
DACT3,0.83,inactive
STPG2,-0.78,inactive
STPG2,-0.63,inactive
STPG2,-1.48,inactive
STPG2,-0.25,inactive
TCAIM,2.08,inactive
TCAIM,1.73,inactive
TCAIM,2.31,inactive
TCAIM,1.59,inactive
PHKB,-1.63,active
PHKB,-0.95,inactive
PHKB,-0.71,inactive
PHKB,-1.02,inactive
GNAS,-0.4,inactive
GNAS,-0.27,inactive
GNAS,-0.2,inactive
GNAS,0.12,inactive
C10orf120,0.53,inactive
C10orf120,-0.76,inactive
C10orf120,-0.72,inactive
C10orf120,-1.45,inactive
PCDHGA2,0.03,inactive
PCDHGA2,-0.67,inactive
PCDHGA2,-0.3,inactive
PCDHGA2,0.64,inactive
COL4A3,-0.66,inactive
COL4A3,-0.52,inactive
COL4A3,-0.68,inactive
COL4A3,-0.5,inactive
C19orf48P,2.05,inactive
C19orf48P,2.06,inactive
C19orf48P,3.05,active
C19orf48P,2.01,inactive
TCP11,2.4,inactive
TCP11,0.88,inactive
TCP11,1.03,inactive
TCP11,1.41,inactive
KRT10-AS1,-0.12,inactive
KRT10-AS1,-1.44,inactive
KRT10-AS1,-0.61,inactive
KRT10-AS1,-0.04,inactive
MAP4K4,0.7,inactive
MAP4K4,2.01,inactive
MAP4K4,1.06,inactive
MAP4K4,1.96,inactive
